Experimental findings from paper PMC5780041 are described below.

Chains of the proteins cited; added tags and fusions are not shown. Lines headed by an entry give the natural chain unless they say otherwise; changes in a name come on top.
UniProt P51149: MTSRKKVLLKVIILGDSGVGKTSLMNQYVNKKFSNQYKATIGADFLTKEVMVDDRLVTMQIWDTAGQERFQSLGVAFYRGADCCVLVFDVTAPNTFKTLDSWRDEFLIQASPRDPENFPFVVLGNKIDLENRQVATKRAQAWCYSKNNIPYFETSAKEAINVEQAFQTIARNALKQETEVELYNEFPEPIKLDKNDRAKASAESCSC
UniProt Q9NVJ2: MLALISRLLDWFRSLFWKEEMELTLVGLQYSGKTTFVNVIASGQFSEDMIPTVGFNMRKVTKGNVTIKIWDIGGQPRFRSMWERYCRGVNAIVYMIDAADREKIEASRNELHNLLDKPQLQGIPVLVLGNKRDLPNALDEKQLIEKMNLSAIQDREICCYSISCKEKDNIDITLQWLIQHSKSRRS

No constants are given. Whether binding was seen depends on the method and setting. In cells and extracts the contact can be indirect. Here binding means that the protein was enriched with, or labelled near, the bait; the list need not be complete.

This experiment has as its target 2 × HA-tagged RAB7A T22N mutant (UniProt P51149). In words: affinity purification with mass spectrometry; TBC1D15/17 DKO HCT116 cells with mCherry-Parkin and 2HA-RAB7A (T22N), DMSO or valinomycin 3 hr; cells cross-linked with 5 mM DTBP; lysis in MCLB buffer (0.5% NP40); anti-HA beads overnight at 4°C, HA peptide elution; CompPASS analysis.

For the substance ARL8B (from UniProt Q9NVJ2 1-186), the binding result is reported as “binds”.
